Results are given in words; binding and its absence hold for the method and conditions named. In cells and extracts the contact can be indirect. Here binding means that the protein was enriched with, or labelled near, the bait; the list need not be complete. Sequences can lack the tags named with a protein.
Assays:
Experiment in all cases: affinity purification with mass spectrometry; GFP pulldown with GFP Tag Immunomagnetic Beads from lysates of HEK-293 Flp-In T-REx cells expressing EGFP, EGFP-MAB21L1 or mutant EGFP-MAB21L1 after 12 hrs of 1 μg/ml tetracycline; three biological replicates; MaxQuant
[1] = target: T1, GFP-tagged MAB21L1 Arg51Gln (human) (UniProt Q13394)
T1 sequence: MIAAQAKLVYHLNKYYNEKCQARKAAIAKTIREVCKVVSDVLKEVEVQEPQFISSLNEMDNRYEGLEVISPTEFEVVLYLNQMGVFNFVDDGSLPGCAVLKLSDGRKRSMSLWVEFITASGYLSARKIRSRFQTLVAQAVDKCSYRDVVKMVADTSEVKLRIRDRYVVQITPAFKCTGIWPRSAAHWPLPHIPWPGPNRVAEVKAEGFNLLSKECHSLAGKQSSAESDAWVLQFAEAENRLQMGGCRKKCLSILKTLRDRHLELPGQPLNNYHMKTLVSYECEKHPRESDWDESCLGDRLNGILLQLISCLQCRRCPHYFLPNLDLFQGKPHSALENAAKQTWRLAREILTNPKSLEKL

[2] = target: T2, GFP-tagged wild-type MAB21L1 (human) (UniProt Q13394)
T2 sequence: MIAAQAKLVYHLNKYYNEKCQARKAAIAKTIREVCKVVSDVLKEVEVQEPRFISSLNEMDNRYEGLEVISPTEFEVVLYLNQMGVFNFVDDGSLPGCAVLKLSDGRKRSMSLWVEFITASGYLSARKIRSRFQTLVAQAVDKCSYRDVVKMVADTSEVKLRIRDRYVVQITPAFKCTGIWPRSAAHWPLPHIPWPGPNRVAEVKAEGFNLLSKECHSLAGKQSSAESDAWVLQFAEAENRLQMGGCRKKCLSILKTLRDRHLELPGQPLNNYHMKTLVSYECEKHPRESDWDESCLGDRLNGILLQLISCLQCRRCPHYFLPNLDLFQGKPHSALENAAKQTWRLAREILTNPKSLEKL

[3] = target: T3, GFP-tagged MAB21L1 Arg51Leu (human) (UniProt Q13394)
T3 sequence: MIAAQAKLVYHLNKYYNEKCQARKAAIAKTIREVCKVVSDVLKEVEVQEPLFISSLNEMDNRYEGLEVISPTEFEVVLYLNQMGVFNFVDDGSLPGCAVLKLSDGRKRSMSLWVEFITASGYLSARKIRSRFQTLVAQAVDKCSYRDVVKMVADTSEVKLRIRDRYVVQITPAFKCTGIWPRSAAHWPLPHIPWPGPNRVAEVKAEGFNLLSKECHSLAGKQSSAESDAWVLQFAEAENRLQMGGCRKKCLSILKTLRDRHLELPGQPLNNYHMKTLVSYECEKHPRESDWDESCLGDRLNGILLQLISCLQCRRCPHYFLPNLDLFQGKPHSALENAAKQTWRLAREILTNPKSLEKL

Measured: binding

B1: GLMN (protein, UniProt Q92990 1-594)
chain: MAVEELQSIIKRCQILEEQDFKEEDFGLFQLAGQRCIEEGHTDQLLEIIQNEKNKVIIKNMGWNLVGPVVRCLLCKDKEDSKRKVYFLIFDLLVKLCNPKELLLGLLELIEEPSGKQISQSILLLLQPLQTVIQKLHNKAYSIGLALSTLWNQLSLLPVPYSKEQIQMDDYGLCQCCKALIEFTKPFVEEVIDNKENSLENEKLKDELLKFCFKSLKCPLLTAQFFEQSEEGGNDPFRYFASEIIGFLSAIGHPFPKMIFNHGRKKRTWNYLEFEEEENKQLADSMASLAYLVFVQGIHIDQLPMVLSPLYLLQFNMGHIEVFLQRTEESVISKGLELLENSLLRIEDNSLLYQYLEIKSFLTVPQGLVKVMTLCPIETLRKKSLAMLQLYINKLDSQGKYTLFRCLLNTSNHSGVEAFIIQNIKNQIDMSLKRTRNNKWFTGPQLISLLDLVLFLPEGAETDLLQNSDRIMASLNLLRYLVIKDNENDNQTGLWTELGNIENNFLKPLHIGLNMSKAHYEAEIKNSQEAQKSKDLCSITVSGEEIPNMPPEMQLKVLHSALFTFDLIESVLARVEELIEIKTKSTSEENIGIK
binds: [1] | [2] | [3]

B2: PYCR2 (protein, UniProt Q96C36 1-320)
chain: MSVGFIGAGQLAYALARGFTAAGILSAHKIIASSPEMNLPTVSALRKMGVNLTRSNKETVKHSDVLFLAVKPHIIPFILDEIGADVQARHIVVSCAAGVTISSVEKKLMAFQPAPKVIRCMTNTPVVVQEGATVYATGTHALVEDGQLLEQLMSSVGFCTEVEEDLIDAVTGLSGSGPAYAFMALDALADGGVKMGLPRRLAIQLGAQALLGAAKMLLDSEQHPCQLKDNVCSPGGATIHALHFLESGGFRSLLINAVEASCIRTRELQSMADQEKISPAALKKTLLDRVKLESPTVSTLTPSSPGKLLTRSLALGGKKD
binds: [1] | [2] | [3]

B3: CDC42EP1 (protein, UniProt Q00587 1-391)
chain: MPGPQGGRGAATMSLGKLSPVGWVSSSQGKRRLTADMISHPLGDFRHTMHVGRGGDVFGDTSFLSNHGGSSGSTHRSPRSFLAKKLQLVRRVGAPPRRMASPPAPSPAPPAISPIIKNAISLPQLNQAAYDSLVVGKLSFDSSPTSSTDGHSSYGLDSGFCTISRLPRSEKPHDRDRDGSFPSEPGLRRSDSLLSFRLDLDLGPSLLSELLGVMSLPEAPAAETPAPAANPPAPTANPTGPAANPPATTANPPAPAANPSAPAATPTGPAANPPAPAASSTPHGHCPNGVTAGLGPVAEVKSSPVGGGPRGPAGPALGRHWGAGWDGGHHYPEMDARQERVEVLPQARASWESLDEEWRAPQAGSRTPVPSTVQANTFEFADAEEDDEVKV
binds: [1] | [2] | [3]

B4: RLIM (protein, UniProt Q9NVW2 1-624)
chain: MENSDSNDKGSGDQSAAQRRSQMDRLDREEAFYQFVNNLSEEDYRLMRDNNLLGTPGESTEEELLRRLQQIKEGPPPQNSDENRGGDSSDDVSNGDSIIDWLNSVRQTGNTTRSGQRGNQSWRAVSRTNPNSGDFRFSLEINVNRNNGSQNSENENEPSARRSSGENVENNSQRQVENPRSESTSARPSRSERNSTEALTEVPPTRGQRRARSRSPDHRRTRARAERSRSPLHPMSEIPRRSHHSISSQTFEHPLVNETEGSSRTRHHVTLRQQISGPELLSRGLFAASGTRNASQGAGSSDTAASGESTGSGQRPPTIVLDLQVRRVRPGEYRQRDSIASRTRSRSQTPNNTVTYESERGGFRRTFSRSERAGVRTYVSTIRIPIRRILNTGLSETTSVAIQTMLRQIMTGFGELSYFMYSDSDSEPTGSVSNRNMERAESRSGRGGSGGGSSSGSSSSSSSSSSSSSSSSSSSSPSSSSGGESSETSSDLFEGSNEGSSSSGSSGARREGRHRAPVTFDESGSLPFLSLAQFFLLNEDDDDQPRGLTKEQIDNLAMRSFGENDALKTCSVCITEYTEGNKLRKLPCSHEYHVHCIDRWLSENSTCPICRRAVLASGNRESVV
binds: [1] | [2] | [3]

B5: ZNF281 (protein, UniProt Q9Y2X9 1-895)
chain: MKIGSGFLSGGGGTGSSGGSGSGGGGSGGGGGGGSSGRRAEMEPTFPQGMVMFNHRLPPVTSFTRPAGSAAPPPQCVLSSSTSAAPAAEPPPPPAPDMTFKKEPAASAAAFPSQRTSWGFLQSLVSIKQEKPADPEEQQSHHHHHHHHYGGLFAGAEERSPGLGGGEGGSHGVIQDLSILHQHVQQQPAQHHRDVLLSSSSRTDDHHGTEEPKQDTNVKKAKRPKPESQGIKAKRKPSASSKPSLVGDGEGAILSPSQKPHICDHCSAAFRSSYHLRRHVLIHTGERPFQCSQCSMGFIQKYLLQRHEKIHSREKPFGCDQCSMKFIQKYHMERHKRTHSGEKPYKCDTCQQYFSRTDRLLKHRRTCGEVIVKGATSAEPGSSNHTNMGNLAVLSQGNTSSSRRKTKSKSIAIENKEQKTGKTNESQISNNINMQSYSVEMPTVSSSGGIIGTGIDELQKRVPKLIFKKGSRKNTDKNYLNFVSPLPDIVGQKSLSGKPSGSLGIVSNNSVETIGLLQSTSGKQGQISSNYDDAMQFSKKRRYLPTASSNSAFSINVGHMVSQQSVIQSAGVSVLDNEAPLSLIDSSALNAEIKSCHDKSGIPDEVLQSILDQYSNKSESQKEDPFNIAEPRVDLHTSGEHSELVQEENLSPGTQTPSNDKASMLQEYSKYLQQAFEKSTNASFTLGHGFQFVSLSSPLHNHTLFPEKQIYTTSPLECGFGQSVTSVLPSSLPKPPFGMLFGSQPGLYLSALDATHQQLTPSQELDDLIDSQKNLETSSAFQSSSQKLTSQKEQKNLESSTGFQIPSQELASQIDPQKDIEPRTTYQIENFAQAFGSQFKSGSRVPMTFITNSNGEVDHRVRTSVSDFSGYTNMMSDVSEPCSTRVKTPTSQSYR
binds: [1] | [2] | [3]

B6: UBA2 (protein, UniProt Q9UBT2 1-640)
chain: MALSRGLPRELAEAVAGGRVLVVGAGGIGCELLKNLVLTGFSHIDLIDLDTIDVSNLNRQFLFQKKHVGRSKAQVAKESVLQFYPKANIVAYHDSIMNPDYNVEFFRQFILVMNALDNRAARNHVNRMCLAADVPLIESGTAGYLGQVTTIKKGVTECYECHPKPTQRTFPGCTIRNTPSEPIHCIVWAKYLFNQLFGEEDADQEVSPDRADPEAAWEPTEAEARARASNEDGDIKRISTKEWAKSTGYDPVKLFTKLFKDDIRYLLTMDKLWRKRKPPVPLDWAEVQSQGEETNASDQQNEPQLGLKDQQVLDVKSYARLFSKSIETLRVHLAEKGDGAELIWDKDDPSAMDFVTSAANLRMHIFSMNMKSRFDIKSMAGNIIPAIATTNAVIAGLIVLEGLKILSGKIDQCRTIFLNKQPNPRKKLLVPCALDPPNPNCYVCASKPEVTVRLNVHKVTVLTLQDKIVKEKFAMVAPDVQIEDGKGTILISSEEGETEANNHKKLSEFGIRNGSRLQADDFLQDYTLLINILHSEDLGKDVEFEVVGDAPEKVGPKQAEDAAKSITNGSDDGAQPSTSTAQEQDDVLIVDSDEEDSSNNADVSEEERSRKRKLDEKENLSAKRSRIEQKEELDDVIALD
binds: [1] | [2] | [3]

B7: HAUS5 (protein, UniProt O94927 1-633)
chain: MELAQEARELGCWAVEEMGVPVAARAPESTLRRLCLGQGADIWAYILQHVHSQRTVKKIRGNLLWYGHQDSPQVRRKLELEAAVTRLRAEIQELDQSLELMERDTEAQDTAMEQARQHTQDTQRRALLLRAQAGAMRRQQHTLRDPMQRLQNQLRRLQDMERKAKVDVTFGSLTSAALGLEPVVLRDVRTACTLRAQFLQNLLLPQAKRGSLPTPHDDHFGTSYQQWLSSVETLLTNHPPGHVLAALEHLAAEREAEIRSLCSGDGLGDTEISRPQAPDQSDSSQTLPSMVHLIQEGWRTVGVLVSQRSTLLKERQVLTQRLQGLVEEVERRVLGSSERQVLILGLRRCCLWTELKALHDQSQELQDAAGHRQLLLRELQAKQQRILHWRQLVEETQEQVRLLIKGNSASKTRLCRSPGEVLALVQRKVVPTFEAVAPQSRELLRCLEEEVRHLPHILLGTLLRHRPGELKPLPTVLPSIHQLHPASPRGSSFIALSHKLGLPPGKASELLLPAAASLRQDLLLLQDQRSLWCWDLLHMKTSLPPGLPTQELLQIQASQEKQQKENLGQALKRLEKLLKQALERIPELQGIVGDWWEQPGQAALSEELCQGLSLPQWRLRWVQAQGALQKLCS
binds: [1] | [2] | [3]

— paper PMC9681113
